Experimental data reported in patent publication US20230270859A1, “COMPOSITIONS AND METHODS FOR TREATING LUPUS” (MONASH UNIVERSITY, priority 2020, published 2023).
No constants are given. Whether binding was seen depends on the method and setting. Some binding calls cover weakened binding; strength is not graded here.

By UniProt entry, the sequences of proteins in these tests, tags left out. Where a name states a change or a piece, a line headed by the entry shows the natural chain unless it says otherwise.
UniProt P62318: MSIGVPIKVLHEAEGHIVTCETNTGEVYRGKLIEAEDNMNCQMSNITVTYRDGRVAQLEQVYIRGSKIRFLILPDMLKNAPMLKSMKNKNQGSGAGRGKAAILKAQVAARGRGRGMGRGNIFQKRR

Target: HLA-DR15 complex (HLA-DRA1*01:01 + HLA-DRB1*15:01) (human)
Assay: ProImmune REVEAL MHC class II-peptide binding assay

binding: binds
Substance: SmD3:43-57 peptide (from UniProt P62318 43-57)
